Laboratory results as given in patent US7855200B2, “Method for treatment of gastric ulcers and ulcers induced by aspirin” (Council of Scientific and Industrial Research, priority 2006, dated 2010).
Values joined by “and” are separate entries in the source; they are usually repeats but may differ in a detail not shown here. Equal entries are not always repeated. For part of these data: The name of at least one read-out is uncertain. At least one compound was matched to its structure with a doubt left.

What was measured:
[1] = system: ethanol induced gastric ulcers; test: Ethanol induced ulcers; type: in vivo, albino rats; settings: rats, ethanol challenge, 4 hours after pylorus ligation
Description: Stress induced gastric ulceration The commercially available drug ranitidine (sigma), Omeprazole (sigma) and sucralfate (Merck) were used as reference standard in experimental models. The Tween-80 (SD fine chemicals) was used as vehicle for the administration of the drug, which is used as control. The animals were divided into 22 groups of 6 animals each. Animals were deprived of food for 48 hours but had free access to water. Group 1 received the vehicle Tween 80 (1%, 1 ml) which served as the control. Group 2 received ranitidine at a dose of 50-mg/kg-body weight, which served as standard for comparison. Group 3 to received Omeprazole at a dose of 30-mg/kg body weight, which served as standard for comparison. Group 4 received sucralfate at a dose of 400-mg/kg body weight, which served as standard for comparison. Group 5 to 22 received at a dose of 25 mg/kg body weight. Lesions were induced 1 hour after ethanol challenge animals. The stomach was ligated at the pylorus under ether anesthesia. 4 hours after pylorus ligation, the animals were sacrificed and the contents drained and centrifuges at 5000 rpm for 10 minutes. Aliquots of supernatant were used for determination of total acid by titrating with 0.01N NaOH using topfers reagent and phenolphthalein indicators. […] The animals were divided into 9 groups of 6 animals each. […]

[2] = system: Pylorus ligated rats; test: Pylorus ligated ulcers; type: in vivo, albino rats; settings: 25 mg/kg, 4 hours after pylorus ligation
Description: The compounds taken under study for antigastric ulcer screening by four different models were selected using experimental albino rats: • 1. Aspirin induced gastric ulceration • 2. Pylorus ligated gastric ulceration • 3. Ethanol induced gastric ulceration • 4. Stress induced gastric ulceration
The commercially available drug ranitidine (sigma), Omeprazole (sigma) and sucralfate (Merck) were used as reference standard in experimental models. The Tween-80 (SD fine chemicals) was used as vehicle for the administration of the drug, which is used as control.
The animals were divided into 19 groups of 6 animals each. Animals were deprived of food for 48 hours but had free access to water. Group 1 received the vehicle Tween 80 (1%, 1 ml) which served as the control. Group 2 received ranitidine at a dose of 50-mg/kg-body weight, which served as standard for comparison. […] After one hour of administration of drug the stomach was ligated at the pylorus under ether anesthesia. 4 hours after pylorus ligation, the animals were sacrificed and the contents drained and centrifuges at 5000 rpm for 10 minutes. Aliquots of supernatant were used for determination of total acid by titrating with 0.01N NaOH using topfers reagent and phenolphthalein indicators. 4.
The animals were divided into 7 groups of 6 animals each. Animals were deprived of food for 48 hours but had free access to water. […]

Q: Which “Acidity Total mEg” value ([1]; 30 mg/kg) does the source give for `COc1ccc2[nH]c([S+]([O-])Cc3ncc(C)c(OC)c3C)nc2c1` (stereo not drawn) [Omeprazole, reference compound] here?
A: 32.01 (±1.52) mEg and 26.01 (±1.52) mEg

Q: How did the Gastric content [2] turn out when `COc1c(OC2OC(CO)C(O)C(O)C2O)cc2oc(-c3ccccc3)cc(=O)c2c1O` (stereo not drawn) [OA-G, 5-Hydroxy-6-methoxy-2-phenyl-7-(3,4,5-trihydroxy-6-hydroxyrnethyl-tetrahydro-pyran-2-yloxy)-chromen-4-one] was run?
A: 4..50 (±0.28)

Q: With `COC(=O)C1OC(Oc2cc3oc(-c4ccccc4)cc(=O)c3cc2OC)C(O)C(O)C1O` (stereo not drawn) [OA-5, 3,4,5-trihydroxy-6-(6-methoxy-4-oxo-2-phenyl-4-H-chromen-7-yoloxy) tetrahydro-pyran-2-carboxylicacid methyl ester] as the molecule, how does the pH ([1]; 10 mg/kg) read?
A: 4.66 ± (0.13)
